{"source": "patent US12275731B2", "about": "“Azaindole inhibitors of wild-type and mutant forms of LRRK2” (DANA-FARBER CANCER INSTITUTE, INC., priority 2018, dated 2025)", "assay_in_all_cases": "KinomeScan profiling", "assay_type_in_all_cases": "binding", "settings_in_all_cases": "1 μM", "key": {"FLT3(ITD, D835V)": {"system": "FLT3(ITD, D835V)", "procedure": "(§1) The kinase selectivity of inventive compounds 77, 96 and 101 was evaluated by KinomeScan®. KinomeScan® analysis was performed against a near comprehensive panel of 468 kinases. The control percentage (% control) for inventive compounds at 1 μM in DMSO was determined by Equation 1: % control=(inventive compound−positive control)/(negative control−positive control)×100%, Equation 1\n(§2) wherein the positive control is a compound with a % control value of 0% relative light units (RLU), and the negative control (i.e., DMSO) has % control value of 100% RLU. The enzyme selectivity in the present invention is defined as follows: inventive compounds are considered active for an enzyme when the observed % control is less than 35% (<35%)."}, "FLT3(ITD)": {"system": "FLT3(ITD)", "procedure": "as §1, §2"}, "FLT3(ITD, F691L)": {"system": "FLT3(ITD, F691L)", "procedure": "as §1, §2"}}, "note": "For at least one compound, name, drawing or mass did not settle the structure.", "data": [{"smiles": "CNc1c(-c2cnn([C@H]3CCN(C(C)=O)C[C@@H]3F)c2)cnc2[nH]cc(Cl)c12", "note": "[Compound 77, 1-((3S,4S)-4-(4-(3-chloro-4-(methylamino)-1H-pyrrolo[2,3-b]pyridin-5-yl)-1H-pyrazol-1-yl)-3-fluoropiperidin-1-yl)ethan-1-one]", "values": [{"measurement": "% control", "setting": "FLT3(ITD, D835V)", "value": 2.5, "unit": "%"}, {"measurement": "% control", "setting": "FLT3(ITD)", "value": 6.2, "unit": "%"}, {"measurement": "% control", "setting": "FLT3(ITD, F691L)", "value": 0, "unit": "%"}]}]}
